From the supplement of paper PMC3334620
In all, about 33,000 sequences were measured (“E-score (-0.5 to 0.5)”: median about -0.0034, highest 2% from about 0.25 on). Some of the results follow.

The sequences below were run against T1, Yap3 (UniProt P38749) (assay: PBM E-score (8-mer binding enrichment) (E-score (-0.5 to 0.5)); higher = stronger / more preferred TF binding). Conditions: protein concentration: 100 nM; construct: GST-full length.
T1 sequence: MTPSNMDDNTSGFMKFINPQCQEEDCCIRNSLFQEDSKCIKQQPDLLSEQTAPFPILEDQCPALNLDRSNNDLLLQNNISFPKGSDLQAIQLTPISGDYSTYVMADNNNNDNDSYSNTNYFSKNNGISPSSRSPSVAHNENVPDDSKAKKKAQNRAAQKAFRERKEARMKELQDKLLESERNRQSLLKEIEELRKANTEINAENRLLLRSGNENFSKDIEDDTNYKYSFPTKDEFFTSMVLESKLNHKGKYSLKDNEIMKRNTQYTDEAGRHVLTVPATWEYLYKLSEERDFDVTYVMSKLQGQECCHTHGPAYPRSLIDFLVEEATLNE
Outline: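 Full-length yeast transcription factors or their DNA-binding domains, GST-tagged and expressed with PURExpress, were applied at about 100-200 nM to universal all-10-mer Agilent arrays. These arrays had been made double-stranded by primer extension on fresh or once-stripped slides. Detection used fluorescent anti-GST, normalisation used masliner, and E-scores for ungapped eight-base words pooled with reverse complements came from the Universal PBM Analysis Suite.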

Sequence	PBM E-score
GTGACACA	0.126
GGGAGTAA	0.126
GACTGTAA	0.126
GGAGCCCA	-0.272
AGAGCTGG	-0.137
GGGGCCAA	-0.185
GTAGTTAA	0.142
ACTTAGGA	-0.122
GCCTTTGA	0.118
GATGCGGC	-0.218
AGTTTAAC	0.0248
CGAGACTA	0.165
CGCTTGGC	-0.178
CCGGAGTC	-0.248
CGGACCTC	-0.21
GCTATAGA	-0.0488
CACCCCTA	-0.0124
CTGCCTGC	-0.21
AGTAGACC	-0.0544
GTAGCCCA	-0.175
AGCCTGGC	-0.138
CGGAACGC	-0.00515
GCAGGGGA	-0.293
AATCTCTA	0.249
CGTTGCAA	0.0264

Sequence	PBM E-score
ATACCCTA	0.0498
CAAGCTCG	-0.0584
ATAAACGC	0.0151
CCGTTGGC	-0.0505
CTGTATCC	0.172
GCTAAGAC	-0.0702
CAATATGA	0.174
CACCGCCG	-0.164
AAGTTATC	0.0646
CTCGAGAG	-0.00076
GGATAACC	-0.154
CCTACTCA	-0.0277
CGTTTCCC	-0.0188
AATGTACC	-0.0973
TGAACTAA	0.0069
GAGGCCCA	-0.264
AGCCCCTA	-0.224
AAAGACAG	0.25
CCCAGTAG	0.0549
GGCATAAA	0.14
GTAGGAGA	-0.137
AGAGGGCG	-0.103
GACCTGAC	-0.0718
ACAGTGAA	0.0171
AAGCGGAG	-0.144

Sequence	PBM E-score
CCCATCTC	-0.00094
CGCGACAG	-0.127
CGCACAGA	-0.0531
CTCCGTAA	-0.0605
TACCGCAA	0.169
CCTCTGAG	-0.208
CCCCCAAA	-0.268
AGAAACGA	0.189
ATGCCCCG	-0.108
ACATCCCC	-0.133
ACACGTTG	-0.237
GAGATCGC	-0.0166
CATCCTGA	0.0387
CCATGGTA	0.0047
ACGGTGAG	0.0341
GGATTTTA	0.139
CTACGTAG	-0.039
AAGCGTCT	-0.163
CATGCTTA	0.0813
TCTAATCA	0.185
CACCGTAC	0.097
AAATCCTG	0.117
GTAATCGA	0.167
TGGAAACA	0.0668
GAGATTCA	0.026

5 records picked at random from the list so far:
Sequence	PBM E-score
CCCCCAAA	-0.268
CCCATCTC	-0.00094
CGTTTCCC	-0.0188
CCTACTCA	-0.0277
CCGGAGTC	-0.248

Some of the entries so far, field by field.
ACATCCCC
  PBM E-score = -0.133
CTACGTAG
  PBM E-score = -0.039

Going on with the list.

Sequence	PBM E-score
AGTGGCTA	-0.127
ACGAACAC	0.154
CCTAAAGA	-0.123
ATGTAAGC	0.264
AGGCCTTA	-0.104
CAATGACG	-0.0644
TATTATCA	0.179
CTTTTTAA	0.04
CGGCGTCA	-0.0918
CTCTGCAG	-0.00393
AAGATCTT	0.214
CTCGTTTA	0.0591
CGTTTCCA	0.105
CCCTTGAC	-0.0534
CAACTATG	0.141
CGATTTCA	0.00447
CAGGACTA	-0.0749
ACTATCAA	0.165
CCAGCCGA	-0.199
CGGAACTC	-0.103
AATAGACC	-0.134
GATGTCAC	0.0205
ACCGTAAT	0.145
ATGAGAAC	0.0902
ATCATGAC	0.222

Sequence	PBM E-score
ACAAGCGG	0.122
AAGCTTTA	0.0767
CAGCGTAC	-0.111
CTCCTTTC	-0.108
AATGTCGC	0.098
CTCCGGCA	-0.133
GGGTCGAC	-0.109
CCAAGGCA	-0.096
ACCGTGTC	-0.0831
GACCCAAC	0.0145
ACACTTCC	0.0193
AGGGTATA	0.168
ATGGGTTC	-0.0764
TCAAATAA	0.133
ATTTCTCA	0.0516
CGGGGTAC	-0.251
CAGGTCGC	-0.0059
ACTGTAGA	0.0938
GCCTATCA	0.108
CGTATAAA	0.156
ATGTGATC	0.188
CCATCACC	0.0411
ATCACTTG	0.062
GCGGGGGA	-0.257
GGTCGCAA	-0.0125

Sequence	PBM E-score
ATATAGGA	0.151
CCGTGTAA	-0.0506
AAGGCACC	-0.0985
CTACTCAA	0.192
GACTCAGC	0.00341
ACTCAGTA	0.244
CAACGCCG	-0.047
CCACAAGC	-0.159
AACAGAAG	0.00147
CAGCTTTC	-0.0897
GCGGGGCA	-0.108
ACAGTTCT	0.0834
CGAGCAAG	-0.0922
TCTGCGAA	-0.259
GCGGTGAC	0.0393
TAAGGCCA	-0.00239
CTACGCGC	-0.0286
GCGATTGA	-0.00574
ACGTGTCA	0.0266
GTTTTATA	0.139
ACGATTCT	0.147
ACTCAATG	0.0458
ACCTCGGG	-0.053
GAGGGTAA	0.00766
AACTCCCT	-0.0742

Sequence	PBM E-score
CATTTATC	0.198
GACAGATC	0.0539
ACAAAACC	0.272
CGCCGTAC	-0.104
CTGCTCTC	-0.0852
GCATCTAC	0.00556
GACGACCC	-0.199
ACTCCGAG	0.0726
AGTTGGTA	0.166
ACTTGGCG	-0.0957
GCGACCCC	-0.349
CGAAAGCG	-0.155
AACTCAAG	0.0218
ACCAGAGC	-0.0251
AATGGAAC	0.12
AAGAATAG	0.0892
CCTTGTCG	-0.133
ATCTCATG	0.134
GGGACATA	0.0437
AGGGCTCC	-0.28
AACAGACG	-0.0301
AAACTTCG	0.00269
GCAAAGAC	0.0185
AAGAATAA	0.151
ACAATAGT	0.144

Sequence	PBM E-score
GCATTCAC	0.16
ACATCGGC	-0.0478
GTCGTATA	0.0408
CTACATGC	0.0316
AAGGAGCT	-0.2
AATGCCAC	-0.0923
ACTTGGAA	-0.143
ACGGCAAG	0.1
ATCTGGCA	-0.0274
CCAGACGA	-0.115
ACTGATGA	0.159
GAAACCGA	0.0654
GTGGGTGA	0.131
ACATAATA	0.353
CCTCAATC	-0.0381
CCAAAAGG	-0.205
GTTGATCA	0.027
GAATAGAC	0.0977
ACAGTGTG	0.0708
AGCGTGTA	-0.0241
AATCTAGG	0.145
CTGCAAGC	-0.147
CCAGCAGA	-0.17
CATCGGAG	-0.206
CTGATCAA	-0.0934

Part of the list above, as comma-separated lines:
Sequence,PBM E-score
GTCGTATA,0.0408
GAAACCGA,0.0654
GTTGATCA,0.027
GAATAGAC,0.0977
ACAGTGTG,0.0708
CTGCAAGC,-0.147

Carrying on.

Sequence	PBM E-score
CGACAAAC	-0.0438
AATTCAGA	0.172
AATTAAGT	0.221
CAGATCTG	-0.0442
GGCACGAA	0.0703
CGTCGTAC	0.0124
ACTGGAGC	-0.294
GGAATTCA	0.148
ACAAAACT	0.206
CAAAAGCG	0.0288
CTTGGCAA	-0.0653
GGAGTACA	-0.0901
CAATGCTG	-0.114
TGACCTCA	-0.128
CACGGGGG	-0.333
CGCAGCCG	-0.235
AAATAGGA	0.213
AACTGCTG	-0.108
AGAGGGTA	-0.137
